# Results are given in words; binding and its absence hold for the method and conditions named. Binding seen in cells or lysates may run through a third protein. Some entries that bind do so weakly or less than the wild type.
# Amino acid sequences for entries named in this document (tags omitted).
# UniProt Q8K1M6: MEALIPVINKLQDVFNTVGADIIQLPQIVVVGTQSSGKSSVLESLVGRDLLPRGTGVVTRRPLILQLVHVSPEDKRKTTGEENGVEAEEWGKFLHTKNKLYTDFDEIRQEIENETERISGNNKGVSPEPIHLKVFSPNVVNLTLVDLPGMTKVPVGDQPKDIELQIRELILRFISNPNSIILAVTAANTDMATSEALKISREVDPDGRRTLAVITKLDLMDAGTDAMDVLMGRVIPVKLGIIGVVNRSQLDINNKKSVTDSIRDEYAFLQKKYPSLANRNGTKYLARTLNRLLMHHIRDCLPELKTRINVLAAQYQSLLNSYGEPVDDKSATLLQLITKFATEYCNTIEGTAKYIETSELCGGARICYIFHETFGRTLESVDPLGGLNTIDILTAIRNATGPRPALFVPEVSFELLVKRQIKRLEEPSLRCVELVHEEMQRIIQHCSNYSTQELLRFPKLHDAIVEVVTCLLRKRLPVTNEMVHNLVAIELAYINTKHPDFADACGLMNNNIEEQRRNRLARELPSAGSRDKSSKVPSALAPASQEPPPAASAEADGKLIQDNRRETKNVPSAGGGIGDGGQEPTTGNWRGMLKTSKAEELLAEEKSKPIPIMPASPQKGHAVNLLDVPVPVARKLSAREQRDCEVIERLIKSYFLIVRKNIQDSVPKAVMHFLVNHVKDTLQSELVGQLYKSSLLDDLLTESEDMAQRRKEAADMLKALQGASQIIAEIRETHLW
# B1: mitochondrial fission 1 protein (Fis1) (protein, UniProt Q9CQ92 1-152)
# chain: MEAVLNELVSVEDLKNFERKFQSEQAAGSVSKSTQFEYAWCLVRSKYNEDIRRGIVLLEELLPKGSKEEQRDYVFYLAVGNYRLKEYEKALKYVRGLLQTEPQNNQAKELERLIDKAMKKDGLVGMAIVGGMALGVAGLAGLIGLAVSKSKS
# Biological target: dynamin-related protein 1 (Drp1) (mouse (endogenous in mouse cerebellum)) (UniProt Q8K1M6)
# Test: co-IP; mouse cerebellum total lysate (50 mM Tris-HCl pH 7.5, 150 mM NaCl, 1% Triton X-100), 800 ug protein, anti-Drp1 antibody overnight at 4°C, protein A/G beads, blot for Drp1 and Fis1; mice with TBI or sham injury, treated with P110 or control peptide TAT
binder,measurement,value
B1,binding,binds

# — article PMC11525032
